Experimental data as given in article PMC8559680.
No constants are given. Whether binding was seen depends on the method and setting. For some assays here: In cells and extracts the contact can be indirect. Some results given as binding are weak or reduced against the parent protein; the word gives no strength. For some assays here: Sequences can lack the tags named with a protein.

How the values were obtained:
Fip1 (yeast) [1] = target: T1, Fip1 (yeast) (UniProt P45976); assay: pull-down; StrepII (SII) tag on Pfs2 as bait; polymerase module subunits co-expressed in Sf9 cells; clarified lysate on Streptactin resin, 4°C; eluate analysed by SDS-PAGE
T1 sequence: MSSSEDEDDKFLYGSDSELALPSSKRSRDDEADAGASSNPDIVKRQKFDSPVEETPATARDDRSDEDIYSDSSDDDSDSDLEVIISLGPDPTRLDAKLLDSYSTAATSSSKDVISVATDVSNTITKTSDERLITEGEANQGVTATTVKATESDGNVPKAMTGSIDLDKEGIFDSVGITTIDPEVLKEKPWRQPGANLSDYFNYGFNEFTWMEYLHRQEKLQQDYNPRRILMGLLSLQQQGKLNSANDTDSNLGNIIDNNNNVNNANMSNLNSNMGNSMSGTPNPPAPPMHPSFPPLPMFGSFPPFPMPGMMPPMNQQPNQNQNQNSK

Fip1_(Δ110–180) (yeast) [2] = target: T2, Fip1_(Δ110–180) (yeast) (UniProt P45976); assay: as above
T2 sequence: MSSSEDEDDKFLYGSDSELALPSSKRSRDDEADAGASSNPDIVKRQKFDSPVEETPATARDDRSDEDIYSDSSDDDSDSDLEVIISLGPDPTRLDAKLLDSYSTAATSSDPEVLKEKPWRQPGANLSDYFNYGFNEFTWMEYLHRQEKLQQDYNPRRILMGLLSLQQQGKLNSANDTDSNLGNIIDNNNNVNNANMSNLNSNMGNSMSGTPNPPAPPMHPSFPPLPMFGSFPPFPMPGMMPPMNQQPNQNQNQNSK

Fip1_(Δ1–60) (yeast) = target: T3, Fip1_(Δ1–60) (yeast) (UniProt P45976); assay: as above
T3 sequence: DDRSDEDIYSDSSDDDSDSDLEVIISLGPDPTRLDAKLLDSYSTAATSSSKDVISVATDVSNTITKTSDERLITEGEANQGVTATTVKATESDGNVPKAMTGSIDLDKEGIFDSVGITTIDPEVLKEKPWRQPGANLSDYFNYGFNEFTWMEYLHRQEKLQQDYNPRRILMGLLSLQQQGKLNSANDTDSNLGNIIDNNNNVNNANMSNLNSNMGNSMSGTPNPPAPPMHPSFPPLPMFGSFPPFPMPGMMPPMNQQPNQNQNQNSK

Fip1 (yeast) [3] = target: T1, Fip1 (yeast); assay: co-purification (StrepTactin affinity, anion exchange, size exclusion); StrepII tag on Ref2 as bait; Sf9 cells co-infected with two baculoviruses (nuclease and polymerase modules; phosphatase module); purified complex analysed by SDS-PAGE
Fip1_(Δ110–180) (yeast) [4] = target: T2, Fip1_(Δ110–180) (yeast); assay: as above
[5] = target: CPF-Fip1_(226) (CPFΔFip1 with labelled Fip1_(226) bound) (yeast) (UniProt P45976); assay: mass photometry; Refeyn One iSCAT; samples diluted to 100 nM in 50 mM HEPES (pH 7.4), 150 mM NaCl; both purified
Fip1_(scramble) (yeast) = target: T4, Fip1_(scramble) (yeast) (UniProt P45976); assay: SEC; three purified components mixed (Pap1; Cft1-Pfs2-SII-Yth1-Fip1 variant; nuclease-phosphatase module); Superose 6 Increase 3.2/300, CPF wash buffer; both purified
T4 sequence: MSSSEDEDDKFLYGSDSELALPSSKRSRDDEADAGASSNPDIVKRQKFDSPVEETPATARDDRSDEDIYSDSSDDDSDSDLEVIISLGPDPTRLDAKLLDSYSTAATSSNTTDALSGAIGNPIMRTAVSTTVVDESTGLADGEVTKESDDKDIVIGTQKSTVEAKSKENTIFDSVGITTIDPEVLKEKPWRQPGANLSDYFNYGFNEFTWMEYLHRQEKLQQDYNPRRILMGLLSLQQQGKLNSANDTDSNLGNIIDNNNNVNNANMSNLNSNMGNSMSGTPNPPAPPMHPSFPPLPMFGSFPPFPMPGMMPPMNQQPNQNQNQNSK

[6] = target: T5, Fip1_(Puf3) (yeast | S. pombe) (UniProt P45976); assay: as above
T5 sequence: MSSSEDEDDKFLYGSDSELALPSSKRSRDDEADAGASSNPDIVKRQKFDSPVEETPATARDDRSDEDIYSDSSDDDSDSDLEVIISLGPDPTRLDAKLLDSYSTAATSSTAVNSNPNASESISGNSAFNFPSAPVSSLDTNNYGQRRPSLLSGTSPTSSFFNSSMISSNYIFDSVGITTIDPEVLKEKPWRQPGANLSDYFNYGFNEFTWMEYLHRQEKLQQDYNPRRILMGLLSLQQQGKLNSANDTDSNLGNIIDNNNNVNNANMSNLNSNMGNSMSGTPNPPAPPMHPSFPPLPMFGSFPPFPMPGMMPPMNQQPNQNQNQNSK

[7] = target: CPF-Fip1_(226) (CPFΔFip1 with labelled Fip1_(226) bound) (yeast) (UniProt P45976); assay: NMR titration; 11 µM 2H,13C,15N Fip1_(226) with 1.1-fold molar excess of unlabelled CPFΔFip1, then excess His-Pap1; BEST 1H,15N-TROSY and 15N-edited 1H diffusion; 950 MHz, 278 K, 50 mM HEPES (pH 7.4), 150 mM NaCl; both purified
[8] = target: T6, Fip1_(226) (Fip1 residues 1–226), purified from E. coli (yeast) (UniProt P45976); assay: NMR titration; labelled Fip1_(226) with unlabelled Yth1ZF4, Pap1, or both together; chemical shift perturbations and line broadening (1H,15N HSQC; 13C-detect CON); 278 K, 50 mM HEPES (pH 7.4), 150 mM NaCl; both purified
T6 sequence: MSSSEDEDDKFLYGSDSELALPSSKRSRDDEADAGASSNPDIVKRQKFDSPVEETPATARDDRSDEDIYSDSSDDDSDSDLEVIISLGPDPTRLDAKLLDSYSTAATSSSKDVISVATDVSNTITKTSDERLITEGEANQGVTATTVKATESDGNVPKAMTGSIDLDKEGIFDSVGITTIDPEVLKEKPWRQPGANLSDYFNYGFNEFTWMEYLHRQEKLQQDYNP

8His-3C-Yth1 (yeast) = target: T7, 8His-3C-Yth1 (yeast) (UniProt Q06102); assay: pull-down; StrepII (SII) tag on Pfs2 as bait; polymerase module subunits co-expressed in Sf9 cells; clarified lysate on Streptactin resin, 4°C; eluate analysed by SDS-PAGE
T7 sequence: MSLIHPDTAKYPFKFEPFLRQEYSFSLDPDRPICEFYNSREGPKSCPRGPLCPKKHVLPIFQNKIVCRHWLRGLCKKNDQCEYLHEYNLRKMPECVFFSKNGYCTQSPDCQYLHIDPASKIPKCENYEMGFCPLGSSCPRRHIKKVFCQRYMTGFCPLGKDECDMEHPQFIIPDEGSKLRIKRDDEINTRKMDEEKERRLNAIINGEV

Ref2-3C-SII (yeast) = target: T8, Ref2-3C-SII (yeast) (UniProt P42073); assay: co-purification (StrepTactin affinity, anion exchange, size exclusion); StrepII tag on Ref2 as bait; Sf9 cells co-infected with two baculoviruses (nuclease and polymerase modules; phosphatase module); purified complex analysed by SDS-PAGE
T8 sequence: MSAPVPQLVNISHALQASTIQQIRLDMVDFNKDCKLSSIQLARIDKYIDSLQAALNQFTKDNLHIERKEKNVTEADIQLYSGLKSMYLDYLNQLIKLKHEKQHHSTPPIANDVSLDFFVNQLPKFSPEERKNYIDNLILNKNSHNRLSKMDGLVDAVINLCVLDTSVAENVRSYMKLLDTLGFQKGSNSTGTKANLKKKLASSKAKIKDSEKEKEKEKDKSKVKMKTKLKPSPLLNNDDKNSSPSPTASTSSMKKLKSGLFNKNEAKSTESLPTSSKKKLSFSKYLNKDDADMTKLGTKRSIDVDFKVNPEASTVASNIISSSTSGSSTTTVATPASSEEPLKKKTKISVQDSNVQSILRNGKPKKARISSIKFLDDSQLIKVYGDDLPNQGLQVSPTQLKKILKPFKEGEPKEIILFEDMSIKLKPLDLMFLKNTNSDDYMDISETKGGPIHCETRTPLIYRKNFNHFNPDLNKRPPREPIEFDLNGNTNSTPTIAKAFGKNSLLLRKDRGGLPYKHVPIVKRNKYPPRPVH

Yth1 (untagged) (yeast) = target: T9, Yth1 (untagged) (yeast) (UniProt Q06102); assay: co-purification (protocol of the wild-type polymerase module); Sf9 cells co-infected with the virus of a Fip1 central LCR variant and the virus of the Cft1, Pfs2-SII and Yth1 complex; four-protein polymerase module purified
T9 sequence: T7 sequence

B1: Pap1 (poly(A) polymerase), co-expressed in Sf9 (enzyme, UniProt P29468 1-537)
chain: MSSQKVFGITGPVSTVGATAAENKLNDSLIQELKKEGSFETEQETANRVQVLKILQELAQRFVYEVSKKKNMSDGMARDAGGKIFTYGSYRLGVHGPGSDIDTLVVVPKHVTREDFFTVFDSLLRERKELDEIAPVPDAFVPIIKIKFSGISIDLICARLDQPQVPLSLTLSDKNLLRNLDEKDLRALNGTRVTDEILELVPKPNVFRIALRAIKLWAQRRAVYANIFGFPGGVAWAMLVARICQLYPNACSAVILNRFFIILSEWNWPQPVILKPIEDGPLQVRVWNPKIYAQDRSHRMPVITPAYPSMCATHNITESTKKVILQEFVRGVQITNDIFSNKKSWANLFEKNDFFFRYKFYLEITAYTRGSDEQHLKWSGLVESKVRLLVMKLEVLAGIKIAHPFTKPFESSYCCPTEDDYEMIQDKYGSHKTETALNALKLVTDENKEEESIKDAPKAYLSTMYIGLDFNIENKKEKVDIHIPCTEFVNLCRSFNEDYGDHKVFNLALRFVKGYDLPDEVFDENEKRPSKKSKRKN
- binding (Fip1 (yeast) [1]): binds
- binding (Fip1_(Δ110–180) (yeast) [2]): binds
- binding (Fip1_(Δ1–60) (yeast)): binds
- binding (Fip1 (yeast) [3]): binds
- binding (Fip1_(Δ110–180) (yeast) [4]): binds

B2: His-Pap1, purified from E. coli (enzyme, UniProt P29468 1-537)
chain: B1 chain
- binding [5]: binds
- binding (Fip1_(scramble) (yeast)): binds
- binding [6]: binds
- binding [7]: binds
- binding [8]: binds

B3: Fip1 (protein, UniProt P45976 1-327)
chain: T1 sequence
- binding (8His-3C-Yth1 (yeast)): binds
- binding (Ref2-3C-SII (yeast)): binds

B4: Fip1_(scramble) (protein, UniProt P45976 1-109; P45976 171-327)
chain: T4 sequence
- binding (Yth1 (untagged) (yeast)): binds

B5: Fip1_(Puf3) (protein, UniProt P45976 1-109; P45976 171-327)
chain: T5 sequence
- binding (Yth1 (untagged) (yeast)): binds
